In the supplement of paper PMC6411743:
± gives the standard deviation of the averaged measurements. Only a part is listed here, and it is no random draw.

The chains behind the UniProt entries cited, without tags or fusion partners. Where a name states a change or a piece, a line headed by the entry shows the natural chain unless it says otherwise.
UniProt Q8NFF5: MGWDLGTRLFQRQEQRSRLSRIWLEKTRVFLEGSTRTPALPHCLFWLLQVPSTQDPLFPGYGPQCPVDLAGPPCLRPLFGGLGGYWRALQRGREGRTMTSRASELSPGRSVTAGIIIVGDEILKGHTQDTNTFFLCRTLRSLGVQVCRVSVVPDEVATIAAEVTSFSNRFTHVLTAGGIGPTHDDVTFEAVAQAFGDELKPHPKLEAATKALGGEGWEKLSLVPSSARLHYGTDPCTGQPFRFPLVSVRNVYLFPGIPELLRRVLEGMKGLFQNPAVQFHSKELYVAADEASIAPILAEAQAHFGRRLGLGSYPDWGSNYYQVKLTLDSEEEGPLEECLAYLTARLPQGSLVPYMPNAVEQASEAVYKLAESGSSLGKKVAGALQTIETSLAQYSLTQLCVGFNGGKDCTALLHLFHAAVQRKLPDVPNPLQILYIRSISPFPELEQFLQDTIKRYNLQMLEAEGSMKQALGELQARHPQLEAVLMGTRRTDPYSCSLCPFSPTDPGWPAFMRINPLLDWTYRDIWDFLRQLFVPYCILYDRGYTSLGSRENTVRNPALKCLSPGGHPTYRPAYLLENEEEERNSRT
UniProt Q8NBX0: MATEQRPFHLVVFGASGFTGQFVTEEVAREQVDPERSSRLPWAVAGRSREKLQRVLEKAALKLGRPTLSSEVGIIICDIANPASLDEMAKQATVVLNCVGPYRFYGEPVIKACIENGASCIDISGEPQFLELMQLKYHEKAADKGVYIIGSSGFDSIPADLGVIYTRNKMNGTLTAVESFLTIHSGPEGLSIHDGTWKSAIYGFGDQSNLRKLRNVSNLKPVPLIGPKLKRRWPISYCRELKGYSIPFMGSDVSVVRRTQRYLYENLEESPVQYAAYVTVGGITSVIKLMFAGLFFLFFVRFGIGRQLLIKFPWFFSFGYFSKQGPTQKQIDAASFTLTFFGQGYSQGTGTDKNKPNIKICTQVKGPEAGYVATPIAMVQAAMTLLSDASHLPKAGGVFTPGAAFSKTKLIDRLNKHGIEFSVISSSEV
UniProt Q8NFC6: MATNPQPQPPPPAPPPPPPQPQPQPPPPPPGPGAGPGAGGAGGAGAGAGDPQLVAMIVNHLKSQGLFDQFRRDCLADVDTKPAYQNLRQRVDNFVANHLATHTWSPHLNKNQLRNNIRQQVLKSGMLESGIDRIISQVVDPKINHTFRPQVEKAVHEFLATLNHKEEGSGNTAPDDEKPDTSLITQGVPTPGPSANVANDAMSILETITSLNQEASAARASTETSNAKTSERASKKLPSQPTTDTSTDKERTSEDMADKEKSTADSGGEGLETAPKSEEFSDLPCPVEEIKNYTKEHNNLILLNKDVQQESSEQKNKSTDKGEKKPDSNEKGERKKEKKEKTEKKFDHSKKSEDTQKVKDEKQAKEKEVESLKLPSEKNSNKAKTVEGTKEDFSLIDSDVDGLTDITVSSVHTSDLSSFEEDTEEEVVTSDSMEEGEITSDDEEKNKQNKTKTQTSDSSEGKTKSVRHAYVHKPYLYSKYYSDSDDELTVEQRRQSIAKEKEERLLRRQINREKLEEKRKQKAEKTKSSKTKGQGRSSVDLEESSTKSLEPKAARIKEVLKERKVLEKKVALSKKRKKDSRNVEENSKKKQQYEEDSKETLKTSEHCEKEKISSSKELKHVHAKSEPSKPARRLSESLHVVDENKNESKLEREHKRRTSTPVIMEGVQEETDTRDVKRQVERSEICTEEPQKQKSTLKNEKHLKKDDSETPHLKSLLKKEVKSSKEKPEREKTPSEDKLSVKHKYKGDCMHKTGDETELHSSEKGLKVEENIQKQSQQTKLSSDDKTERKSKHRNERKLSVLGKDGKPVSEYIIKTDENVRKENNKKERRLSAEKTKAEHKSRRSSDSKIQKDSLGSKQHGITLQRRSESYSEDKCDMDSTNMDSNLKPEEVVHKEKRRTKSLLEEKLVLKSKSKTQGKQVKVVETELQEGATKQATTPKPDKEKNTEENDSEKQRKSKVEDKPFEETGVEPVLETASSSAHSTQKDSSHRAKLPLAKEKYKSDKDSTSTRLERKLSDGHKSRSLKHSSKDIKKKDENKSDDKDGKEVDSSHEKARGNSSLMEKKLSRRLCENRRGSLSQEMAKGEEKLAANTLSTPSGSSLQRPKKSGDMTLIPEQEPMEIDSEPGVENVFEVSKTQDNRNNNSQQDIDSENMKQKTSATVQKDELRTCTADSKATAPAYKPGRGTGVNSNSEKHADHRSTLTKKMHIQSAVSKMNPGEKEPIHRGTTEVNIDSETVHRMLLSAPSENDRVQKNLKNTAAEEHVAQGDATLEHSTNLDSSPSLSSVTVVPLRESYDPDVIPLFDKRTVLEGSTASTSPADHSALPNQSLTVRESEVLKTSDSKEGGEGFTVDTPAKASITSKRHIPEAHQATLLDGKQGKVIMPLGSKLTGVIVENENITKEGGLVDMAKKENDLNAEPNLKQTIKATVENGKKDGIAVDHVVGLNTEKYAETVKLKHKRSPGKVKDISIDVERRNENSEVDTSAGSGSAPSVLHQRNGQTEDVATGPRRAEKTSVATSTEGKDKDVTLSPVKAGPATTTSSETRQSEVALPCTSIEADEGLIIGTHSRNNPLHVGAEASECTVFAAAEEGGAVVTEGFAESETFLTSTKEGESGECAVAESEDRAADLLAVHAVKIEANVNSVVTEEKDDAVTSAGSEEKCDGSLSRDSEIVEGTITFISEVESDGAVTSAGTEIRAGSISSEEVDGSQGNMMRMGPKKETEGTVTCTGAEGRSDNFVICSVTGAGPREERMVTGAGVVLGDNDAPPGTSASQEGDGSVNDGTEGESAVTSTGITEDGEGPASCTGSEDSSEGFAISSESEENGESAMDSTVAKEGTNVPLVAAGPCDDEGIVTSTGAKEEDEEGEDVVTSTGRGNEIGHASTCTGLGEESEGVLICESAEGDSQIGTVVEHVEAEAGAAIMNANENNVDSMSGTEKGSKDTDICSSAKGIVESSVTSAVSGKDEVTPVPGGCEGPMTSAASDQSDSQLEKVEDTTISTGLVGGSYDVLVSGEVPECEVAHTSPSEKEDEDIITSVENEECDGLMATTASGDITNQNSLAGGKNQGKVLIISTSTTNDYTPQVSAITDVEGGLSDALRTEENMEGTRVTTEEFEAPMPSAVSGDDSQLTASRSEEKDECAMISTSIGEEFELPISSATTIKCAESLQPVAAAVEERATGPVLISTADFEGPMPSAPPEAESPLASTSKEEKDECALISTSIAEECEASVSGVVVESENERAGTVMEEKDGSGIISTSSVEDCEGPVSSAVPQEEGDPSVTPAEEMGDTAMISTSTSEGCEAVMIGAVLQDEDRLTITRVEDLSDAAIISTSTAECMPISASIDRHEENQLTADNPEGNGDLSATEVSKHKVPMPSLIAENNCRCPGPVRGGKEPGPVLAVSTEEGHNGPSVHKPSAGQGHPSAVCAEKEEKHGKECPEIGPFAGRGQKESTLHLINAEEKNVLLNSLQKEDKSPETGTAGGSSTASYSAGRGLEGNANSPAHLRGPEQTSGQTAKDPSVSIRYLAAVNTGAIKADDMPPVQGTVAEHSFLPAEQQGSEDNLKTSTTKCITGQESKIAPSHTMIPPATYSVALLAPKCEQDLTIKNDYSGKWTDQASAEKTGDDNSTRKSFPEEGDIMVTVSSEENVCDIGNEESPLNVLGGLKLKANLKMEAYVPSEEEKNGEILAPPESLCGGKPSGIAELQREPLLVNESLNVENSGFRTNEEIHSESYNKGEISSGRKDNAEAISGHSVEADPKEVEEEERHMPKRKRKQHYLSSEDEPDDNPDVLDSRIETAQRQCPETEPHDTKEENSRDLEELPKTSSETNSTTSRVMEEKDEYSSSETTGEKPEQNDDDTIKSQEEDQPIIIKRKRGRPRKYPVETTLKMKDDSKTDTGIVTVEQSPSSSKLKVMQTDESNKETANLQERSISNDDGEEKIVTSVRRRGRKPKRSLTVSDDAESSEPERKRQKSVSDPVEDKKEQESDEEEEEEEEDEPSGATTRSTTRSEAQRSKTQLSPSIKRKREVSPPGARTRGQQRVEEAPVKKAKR
UniProt Q8NBN3: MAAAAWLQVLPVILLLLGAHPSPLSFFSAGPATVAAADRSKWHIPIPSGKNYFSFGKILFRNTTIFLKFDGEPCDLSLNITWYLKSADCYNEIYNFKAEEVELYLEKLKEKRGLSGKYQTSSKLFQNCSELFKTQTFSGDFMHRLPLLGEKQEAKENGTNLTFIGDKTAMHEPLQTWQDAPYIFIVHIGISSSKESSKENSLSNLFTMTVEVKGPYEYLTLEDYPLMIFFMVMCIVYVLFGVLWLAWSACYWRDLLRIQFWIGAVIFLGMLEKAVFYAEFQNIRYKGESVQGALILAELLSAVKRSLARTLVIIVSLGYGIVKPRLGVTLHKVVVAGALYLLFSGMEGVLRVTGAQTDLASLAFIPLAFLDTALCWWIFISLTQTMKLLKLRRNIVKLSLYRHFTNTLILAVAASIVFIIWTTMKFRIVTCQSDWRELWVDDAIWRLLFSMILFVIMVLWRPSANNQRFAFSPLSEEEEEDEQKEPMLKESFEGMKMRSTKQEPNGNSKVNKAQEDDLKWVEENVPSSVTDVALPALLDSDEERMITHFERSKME
UniProt Q8NEM2: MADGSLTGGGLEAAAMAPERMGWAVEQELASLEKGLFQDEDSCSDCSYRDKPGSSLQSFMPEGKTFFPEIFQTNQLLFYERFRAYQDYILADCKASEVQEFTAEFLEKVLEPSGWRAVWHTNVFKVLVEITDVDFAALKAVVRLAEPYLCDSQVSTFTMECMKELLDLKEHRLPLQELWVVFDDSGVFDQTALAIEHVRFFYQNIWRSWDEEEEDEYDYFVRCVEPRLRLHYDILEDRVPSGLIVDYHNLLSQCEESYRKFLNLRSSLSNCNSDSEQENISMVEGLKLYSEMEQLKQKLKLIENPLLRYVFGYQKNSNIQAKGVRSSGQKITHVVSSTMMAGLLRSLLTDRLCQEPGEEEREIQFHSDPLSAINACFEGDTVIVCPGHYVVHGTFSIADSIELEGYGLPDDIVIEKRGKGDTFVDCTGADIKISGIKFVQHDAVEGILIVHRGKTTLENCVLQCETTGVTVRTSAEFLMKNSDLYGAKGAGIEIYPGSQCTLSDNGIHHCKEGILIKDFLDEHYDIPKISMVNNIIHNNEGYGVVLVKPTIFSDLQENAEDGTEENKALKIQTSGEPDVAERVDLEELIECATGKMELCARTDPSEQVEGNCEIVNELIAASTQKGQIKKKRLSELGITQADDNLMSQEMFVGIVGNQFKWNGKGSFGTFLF
UniProt Q8N9V3: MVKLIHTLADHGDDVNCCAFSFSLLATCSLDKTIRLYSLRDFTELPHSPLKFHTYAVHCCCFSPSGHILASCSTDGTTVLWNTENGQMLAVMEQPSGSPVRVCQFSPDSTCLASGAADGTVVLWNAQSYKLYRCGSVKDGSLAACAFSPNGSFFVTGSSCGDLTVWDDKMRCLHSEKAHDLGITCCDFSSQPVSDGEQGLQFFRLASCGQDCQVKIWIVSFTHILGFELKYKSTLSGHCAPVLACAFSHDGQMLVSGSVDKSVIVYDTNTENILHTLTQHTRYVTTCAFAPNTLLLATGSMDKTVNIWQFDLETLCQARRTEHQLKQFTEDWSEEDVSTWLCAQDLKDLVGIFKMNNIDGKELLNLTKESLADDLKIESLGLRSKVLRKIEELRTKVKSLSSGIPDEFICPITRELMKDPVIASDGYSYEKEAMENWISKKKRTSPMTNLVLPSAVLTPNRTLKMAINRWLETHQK
UniProt Q8NFW8: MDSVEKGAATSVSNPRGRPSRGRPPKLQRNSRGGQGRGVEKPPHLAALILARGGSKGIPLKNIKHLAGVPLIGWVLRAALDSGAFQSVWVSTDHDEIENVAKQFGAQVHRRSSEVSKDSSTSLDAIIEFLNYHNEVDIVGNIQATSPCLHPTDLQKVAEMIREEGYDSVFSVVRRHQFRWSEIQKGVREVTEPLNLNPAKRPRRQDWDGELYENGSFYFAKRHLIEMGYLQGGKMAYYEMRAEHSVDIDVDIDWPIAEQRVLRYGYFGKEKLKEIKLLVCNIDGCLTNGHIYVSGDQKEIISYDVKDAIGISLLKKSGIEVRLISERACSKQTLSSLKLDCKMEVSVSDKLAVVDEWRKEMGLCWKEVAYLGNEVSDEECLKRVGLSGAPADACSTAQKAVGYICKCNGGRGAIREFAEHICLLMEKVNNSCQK
UniProt Q8TAP9: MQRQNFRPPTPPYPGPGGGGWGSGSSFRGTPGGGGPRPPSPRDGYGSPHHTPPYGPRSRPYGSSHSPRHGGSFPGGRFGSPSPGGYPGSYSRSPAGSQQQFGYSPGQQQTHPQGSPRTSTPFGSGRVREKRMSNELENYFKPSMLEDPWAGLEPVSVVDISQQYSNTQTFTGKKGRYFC

Compound: Nc1ncnc2c1ncn2[C@@H]1O[C@H](COP(=O)(O)OP(=O)(O)OP(=O)(O)O)[C@@H](O)[C@H]1O [adenosine triphosphate]
Experiment: NP40-soluble protein abundance relative to vehicle (solubility fold change) (ratio); higher = more soluble protein in presence of ATP
How it was run: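 In three independent experiments, Jurkat crude lysate made by Dounce homogenisation was treated for 10 min at room temperature and then 3 min at 37 °C with eight concentrations ranging from 0.1 to 10 mM. It was then solubilised with 0.8% NP40 plus benzonase for 60 min at 4 °C and ultracentrifuged. The supernatant was TMT-labelled for LC-MS/MS, and each value is the fold change against the detergent-processed vehicle for the same replicate, using vsn-normalised intensities.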

Row | Target | NP40-soluble protein abundance (concentration: 1mM) | NP40-soluble protein abundance (concentration: 2mM) | NP40-soluble protein abundance (concentration: 4mM) | NP40-soluble protein abundance (concentration: 6mM) | NP40-soluble protein abundance (concentration: 8mM) | NP40-soluble protein abundance (concentration: 10mM)
1 | EHBP1L1 (UniProt Q8N3D4) | 0.998 ± 0.078 | 1.01 ± 0.14 | 1.02 ± 0.083 | 1.04 ± 0.14 | 0.988 ± 0.048 | 0.975 ± 0.026
2 | UniProt Q8ND25 and related entries | 0.909 ± 0.13 | 0.9449 ± 0.0092 | 0.947 ± 0.049 | 0.999 ± 0.023 | 0.91 ± 0.05 | 0.903 ± 0.042
3 | UniProt Q8NFF5 and related entries | 0.947 ± 0.029 | 0.936 ± 0.046 | 0.921 ± 0.033 | 0.916 ± 0.05 | 0.927 ± 0.036 | 0.934 ± 0.022
4 | SCCPDH (UniProt Q8NBX0) | 1.04 ± 0.064 | 1.01 ± 0.06 | 1 ± 0.054 | 0.98 ± 0.1 | 1.02 ± 0.042 | 0.999 ± 0.066
5 | UniProt Q8NFC6 | 0.948 ± 0.04 | 0.954 ± 0.028 | 0.949 ± 0.024 | 0.999 ± 0.037 | 0.933 ± 0.027 | 0.952 ± 0.014
6 | PAF1 (UniProt Q8N7H5) | 1.01 ± 0.035 | 0.992 ± 0.036 | 0.957 ± 0.014 | 0.956 ± 0.039 | 0.84 ± 0.04 | 0.742 ± 0.044
7 | UniProt Q8NBN3 and related entries | 0.933 ± 0.013 | 0.911 ± 0.027 | 0.899 ± 0.039 | 0.9565 ± 0.0059 | 0.901 ± 0.025 | 0.901 ± 0.014
8 | CLYBL (UniProt Q8N0X4) | 1.03 ± 0.039 | 1 ± 0.028 | 1.05 ± 0.036 | 1.05 ± 0.032 | 0.991 ± 0.06 | 1.012 ± 0.0089
9 | DHX37 (UniProt Q8IY37) | 1.22 ± 0.031 | 1.23 ± 0.0075 | 1.29 ± 0.068 | 1.29 ± 0.049 | 1.37 ± 0.068 | 1.42 ± 0.055
10 | DIS3L2 (UniProt Q8IYB7) | 1.02 ± 0.021 | 1 ± 0.02 | 1 ± 0.04 | 0.976 ± 0.033 | 0.991 ± 0.02 | 0.98 ± 0.02
11 | SHCBP1 (UniProt Q8NEM2) | 1.09 ± 0.047 | 0.997 ± 0.077 | 1.09 ± 0.065 | 0.991 ± 0.032 | 1.02 ± 0.053 | 1.03 ± 0.059
12 | UniProt Q8N9V3 and related entries | 0.989 ± 0.018 | 0.995 ± 0.02 | 0.997 ± 0.072 | 0.981 ± 0.032 | 0.991 ± 0.036 | 0.989 ± 0.054
13 | CMAS (UniProt Q8NFW8) | 1.11 ± 0.098 | 1.14 ± 0.068 | 1.14 ± 0.062 | 1.18 ± 0.11 | 1.26 ± 0.046 | 1.3 ± 0.065
14 | UniProt Q8NEZ4 and related entries | 0.984 ± 0.037 | 0.973 ± 0.07 | 0.991 ± 0.018 | 0.958 ± 0.025 | 0.986 ± 0.067 | 1.04 ± 0.057
15 | UniProt Q8TAP9 | 0.818 ± 0.11 | 0.894 ± 0.066 | 0.891 ± 0.11 | 0.884 ± 0.16 | 0.901 ± 0.14 | 0.895 ± 0.15
